For at least one entry, the source does not settle the construct or the ends of the probe. A weaker result is weaker than the reference pair of the same experiment. At least one verdict rests on a figure or table, not on a statement of the authors.

The subject of the first data set is Irc3op (Ogataea polymorpha NCYC 495 leu1.1). Description: fluorescence anisotropy. The conditions noted are these: no ATP. (In fluorescence polarisation assays a small probe gives low polarisation when free and higher when bound to something large.)
For the sequence “GTCGGATCCTCTAGACAGCTCCATGATCACTGGCACTGGTAGAATTCGGC / CAACGTCATAGACGATTACATTGCTACATGGAGCTGTCTAGAGGATCCGA / ATGTAATCGTCTATGACGTT / TGCCGAATTCTACCAGTGCCAGTGAT [123g4 (gapped lagging)]”, the binding result was “binds”. For the sequence “GTCGGATCCTCTAGACAGCTCCATGATCACTGGCACTGGTAGAATTCGGC / CAACGTCATAGACGATTACATTGCTACATGGAGCTGTCTAGAGGATCCGA / ATGTAATCGTCTATGACGTT [123g (oligo 5 for 3)]”, the binding result is “binds”. The same measure, in the same setting: to “GTCGGATCCTCTAGACAGCTCCATGATCACTGGCACTGGTAGAATTCGGC / CAACGTCATAGACGATTACATTGCTACATGGAGCTGTCTAGAGGATCCGA / GCCGAATTCTACCAGTGCCA [124g (oligo 6 for 4)]” belongs “binds”; to “GTCGGATCCTCTAGACAGCTCCATGATCACTGGCACTGGTAGAATTCGGC / CAACGTCATAGACGATTACATTGCTACATGGAGCTGTCTAGAGGATCCGA / GTTAGCAATGTAATCGTCTATGACGTT [123h]”, “binds”. “GTCGGATCCTCTAGACAGCTCCATGATCACTGGCACTGGTAGAATTCGGC / CAACGTCATAGACGATTACATTGCTACATGGAGCTGTCTAGAGGATCCGA / TAGCAATGTAATCGTCTATGACGTT / TGCCGAATTCTACCAGTGCCAGTGAT [1234]”: the binding result was “binds”. On the same count and under the same terms, under “GTCGGATCCTCTAGACAGCTCCATGATCACTGGCACTGGTAGAATTCGGC / CAACGTCATAGACGATTACATTGCTACATGGAGCTGTCTAGAGGATCCGA / TAGCAATGTAATCGTCTATGACGTT [123]” stands “binds”; under “GTCGGATCCTCTAGACAGCTCCATGATCACTGGCACTGGTAGAATTCGGC / CAACGTCATAGACGATTACATTGCTACATGGAGCTGTCTAGAGGATCCGA / TGCCGAATTCTACCAGTGCCAGTGAT [124]”, “binds”.

“GTCGGATCCTCTAGACAGCTCCATGATCACTGGCACTGGTAGAATTCGGC / CAACGTCATAGACGATTACATTGCTACATGGAGCTGTCTAGAGGATCCGA / TGCCGAATTCTACCAGTGCCAGTGATAC [124h]”: the binding result was “binds”. In the case of “GTCGGATCCTCTAGACAGCTCCATGATCACTGGCACTGGTAGAATTCGGC / CAACGTCATAGACGATTACATTGCTACATGGAGCTGTCTAGAGGATCCGA / TGCCGAATTCTACCAGTGCCAGTGATGGACATCTTTGCCCACGTTGACCC / TGGGTCAACGTGGGCAAAGATGTCCTAGCAATGTAATCGTCTATGACGTT [X0]”, the binding result is recorded as “binds”.

Turning to “GTCGGATCCTCTAGACAGCTCCATGATCACTGGCACTGGTAGAATTCGGC / CAACGTCATAGACGATTACATTGCTACATGGAGCTGTCTAGAGGATCCGA [12 (fork, no nascent strands)]”, the binding result is on record as “binds”.

As to “TGGGTCAACGTGGGCAAAGATGTCCTAGCAATGTAATCGTCTATGACGTT / GACGCTGCCGAATTCTGGCTTGCTAGGACATCTTTGCCCACGTTGACCC / CAACGTCATAGACGATTACATTGCTAGGACATGCTGTCTAGAGACTATCGA / ATCGATAGTCTCTAGACAGCATGTCCTAGCAAGCCAGAATTCGGCAGCGT [X12]”, the binding result is “binds”.

Staying with this data set, now noted: no ATP, Kd less than 3-fold that of longer DNA.
With GATCCAACCGCA (double strand) [ds12], the binding result is given as “binds more weakly”. Turning to GATCCAACCGCA [ss12], the binding result is given as “binds more weakly”.

Still in this data set, the particulars now being: no ATP, weaker than without flap.
Take “GTCGGATCCTCTAGACAGCTCCATGATCACTGGCACTGGTAGAATTCGGC / CAACGTCATAGACGATTACATTGCTACATGGAGCTGTCTAGAGGATCCGA / ATGTAATCGTCTATGACGTT / TGCCGAATTCTACCAGTGCCAGTGATAC [123g4h (gapped lagging, leading flap)]”: the binding result is “binds more weakly”. With “GTCGGATCCTCTAGACAGCTCCATGATCACTGGCACTGGTAGAATTCGGC / CAACGTCATAGACGATTACATTGCTACATGGAGCTGTCTAGAGGATCCGA / TAGCAATGTAATCGTCTATGACGTT / TGCCGAATTCTACCAGTGCCAGTGATAC [1234h (leading-strand flap)]”, the binding result is reported as “binds more weakly”.
